{
  "source": "patent US20060034915A1",
  "about": "“Dexamethasone-containing formulations for oral administration as well the process for manufacturing required therefor” (priority 2003, published 2006)",
  "origin": "cited, not measured here",
  "details": "Goodman and Gilman, Ninth edition, page 1466",
  "note": "At least one structure is not confirmed: it was looked up by name or label, or the drawing left a doubt.",
  "data": [
    {"compound": "C[C@@H]1C[C@H]2[C@@H]3CCC4=CC(=O)C=C[C@]4(C)[C@@]3(F)[C@@H](O)C[C@]2(C)[C@@]1(O)C(=O)CO", "note": "[Dexamethasone]", "values": [
      {"measurement": "Anti-inflammatory potency relative to cortisone", "value": "thirty times"}
    ]}
  ]
}
